Test results published in paper PMC8184941.
These are yes or no findings as the source states them, for the method shown. Binding seen in cells or lysates may run through a third protein. Some results given as binding are weak or reduced against the parent protein; the word gives no strength.

Chains of the proteins cited; added tags and fusions are not shown.
UniProt Q8TC59: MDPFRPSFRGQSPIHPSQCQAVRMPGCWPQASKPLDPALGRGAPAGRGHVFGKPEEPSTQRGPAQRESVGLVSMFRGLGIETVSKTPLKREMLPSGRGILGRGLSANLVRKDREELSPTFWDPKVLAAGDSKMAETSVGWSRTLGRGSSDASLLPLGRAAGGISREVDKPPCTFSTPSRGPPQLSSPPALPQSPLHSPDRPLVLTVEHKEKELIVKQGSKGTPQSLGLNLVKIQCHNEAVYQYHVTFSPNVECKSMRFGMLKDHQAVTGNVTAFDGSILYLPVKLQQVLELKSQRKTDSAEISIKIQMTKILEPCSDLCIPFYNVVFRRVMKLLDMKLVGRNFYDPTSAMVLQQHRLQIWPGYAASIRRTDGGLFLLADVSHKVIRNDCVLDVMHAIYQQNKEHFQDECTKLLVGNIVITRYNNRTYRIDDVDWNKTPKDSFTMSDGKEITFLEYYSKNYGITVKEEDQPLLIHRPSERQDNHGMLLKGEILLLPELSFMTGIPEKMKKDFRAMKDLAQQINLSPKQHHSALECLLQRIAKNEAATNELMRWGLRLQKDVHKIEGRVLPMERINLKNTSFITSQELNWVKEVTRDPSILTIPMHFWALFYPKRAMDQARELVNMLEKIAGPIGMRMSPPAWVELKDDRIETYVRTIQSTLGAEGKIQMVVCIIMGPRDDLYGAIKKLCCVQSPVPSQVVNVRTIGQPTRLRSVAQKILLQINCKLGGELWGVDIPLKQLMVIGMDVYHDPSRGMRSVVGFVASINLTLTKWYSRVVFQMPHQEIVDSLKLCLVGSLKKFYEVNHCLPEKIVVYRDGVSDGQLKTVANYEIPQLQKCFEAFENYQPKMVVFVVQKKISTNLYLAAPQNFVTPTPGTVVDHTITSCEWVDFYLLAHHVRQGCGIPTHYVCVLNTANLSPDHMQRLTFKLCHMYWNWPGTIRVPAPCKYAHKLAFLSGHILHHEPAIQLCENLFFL

T1: TSC1 (tuberous sclerosis 1) (human (endogenous in KYSE150)) (UniProt Q92574)
T1 sequence: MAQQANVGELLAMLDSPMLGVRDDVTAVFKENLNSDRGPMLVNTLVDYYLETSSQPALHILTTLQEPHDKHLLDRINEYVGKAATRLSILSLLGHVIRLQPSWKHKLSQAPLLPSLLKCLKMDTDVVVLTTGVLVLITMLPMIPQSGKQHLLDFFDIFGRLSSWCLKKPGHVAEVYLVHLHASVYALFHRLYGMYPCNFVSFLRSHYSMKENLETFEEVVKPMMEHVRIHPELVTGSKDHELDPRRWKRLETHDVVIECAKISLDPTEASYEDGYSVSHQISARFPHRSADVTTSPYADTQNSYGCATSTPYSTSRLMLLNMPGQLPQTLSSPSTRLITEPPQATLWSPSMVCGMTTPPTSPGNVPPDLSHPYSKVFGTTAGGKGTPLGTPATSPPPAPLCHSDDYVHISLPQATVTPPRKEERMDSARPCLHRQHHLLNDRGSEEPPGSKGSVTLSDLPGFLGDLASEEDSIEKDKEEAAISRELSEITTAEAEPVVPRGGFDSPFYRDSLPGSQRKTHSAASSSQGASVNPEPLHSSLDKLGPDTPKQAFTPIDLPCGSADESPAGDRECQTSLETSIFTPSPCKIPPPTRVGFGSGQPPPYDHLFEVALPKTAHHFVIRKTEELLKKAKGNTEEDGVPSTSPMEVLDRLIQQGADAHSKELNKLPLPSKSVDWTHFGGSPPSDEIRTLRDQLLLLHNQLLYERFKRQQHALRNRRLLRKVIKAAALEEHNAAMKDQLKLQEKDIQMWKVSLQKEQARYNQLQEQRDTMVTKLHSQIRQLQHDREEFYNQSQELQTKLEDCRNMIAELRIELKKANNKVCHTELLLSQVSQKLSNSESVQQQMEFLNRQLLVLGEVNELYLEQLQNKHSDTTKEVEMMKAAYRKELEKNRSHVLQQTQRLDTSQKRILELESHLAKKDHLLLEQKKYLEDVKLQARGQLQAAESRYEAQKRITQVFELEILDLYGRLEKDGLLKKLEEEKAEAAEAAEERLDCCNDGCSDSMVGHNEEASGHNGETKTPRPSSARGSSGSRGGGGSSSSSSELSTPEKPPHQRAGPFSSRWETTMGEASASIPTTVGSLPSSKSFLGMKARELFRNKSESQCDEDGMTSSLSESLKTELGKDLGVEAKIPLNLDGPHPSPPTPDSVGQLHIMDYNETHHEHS

T2: TSC1, cell-free expressed (TnT System) (UniProt Q92574)
T2 sequence: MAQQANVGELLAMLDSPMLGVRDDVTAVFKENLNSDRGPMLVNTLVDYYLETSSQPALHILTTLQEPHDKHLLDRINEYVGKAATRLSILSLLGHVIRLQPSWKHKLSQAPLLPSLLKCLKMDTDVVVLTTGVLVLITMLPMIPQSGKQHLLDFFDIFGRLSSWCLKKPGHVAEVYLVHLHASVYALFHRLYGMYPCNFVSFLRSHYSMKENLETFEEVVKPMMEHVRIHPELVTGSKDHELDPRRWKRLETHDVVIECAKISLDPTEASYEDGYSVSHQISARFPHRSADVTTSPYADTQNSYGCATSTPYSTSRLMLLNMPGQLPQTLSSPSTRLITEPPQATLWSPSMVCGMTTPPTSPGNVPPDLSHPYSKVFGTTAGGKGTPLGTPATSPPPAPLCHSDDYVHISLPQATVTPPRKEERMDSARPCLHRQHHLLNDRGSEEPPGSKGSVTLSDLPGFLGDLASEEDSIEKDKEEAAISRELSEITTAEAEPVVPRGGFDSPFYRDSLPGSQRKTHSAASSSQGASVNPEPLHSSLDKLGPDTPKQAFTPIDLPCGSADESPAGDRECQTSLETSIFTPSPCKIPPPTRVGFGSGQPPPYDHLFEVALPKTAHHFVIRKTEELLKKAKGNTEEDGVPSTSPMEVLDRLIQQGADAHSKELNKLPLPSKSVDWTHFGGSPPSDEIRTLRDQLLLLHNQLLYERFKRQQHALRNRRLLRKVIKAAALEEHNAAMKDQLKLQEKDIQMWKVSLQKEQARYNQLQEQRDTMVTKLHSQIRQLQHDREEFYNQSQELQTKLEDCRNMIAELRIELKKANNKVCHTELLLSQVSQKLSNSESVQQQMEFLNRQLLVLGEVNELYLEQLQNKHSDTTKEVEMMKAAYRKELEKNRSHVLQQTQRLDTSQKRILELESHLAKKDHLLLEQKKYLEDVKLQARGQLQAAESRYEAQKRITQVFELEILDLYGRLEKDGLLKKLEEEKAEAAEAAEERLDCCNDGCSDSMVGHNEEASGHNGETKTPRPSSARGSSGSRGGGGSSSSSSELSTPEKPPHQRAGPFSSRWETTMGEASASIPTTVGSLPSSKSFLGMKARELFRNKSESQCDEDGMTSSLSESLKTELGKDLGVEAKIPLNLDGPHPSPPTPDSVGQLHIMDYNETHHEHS


What was measured:
[1] = biological target: PIWIL2 (piwi-like RNA-mediated gene silencing 2) (human) (UniProt Q8TC59); assay: co-IP; lysates of KYSE150 and KYSE180 cells; immunoprecipitation with the indicated antibodies and protein A + G agarose beads, western blot
[2] = biological target: PIWIL2 overexpressed from the PIWIL2 expression vector (human) (UniProt Q8TC59); assay: co-IP; KYSE150 cells transfected with different amounts of PIWIL2 vector (1-3 µg); immunoprecipitation with anti-PIWIL2 or anti-TSC1, IKKβ detected by blot
[3] = biological target: T1, TSC1 (tuberous sclerosis 1) (human (endogenous in KYSE150)); assay: as above
[4] = biological target: T2, TSC1, cell-free expressed (TnT System); assay: co-IP; cell-free expression of PIWIL2, IKKβ and TSC1 with the TnT System, followed by immunoprecipitation
[5] = biological target: PIWIL2, cell-free expressed (TnT System) (human) (UniProt Q8TC59); assay: as above

| binding [1] | binding [2] | binding [3] | binding [4] | binding [5] | Binder |
| --- | --- | --- | --- | --- | --- |
| binds | binds | binds | – | – | IKKβ (protein, UniProt O14920 1-756) MSWSPSLTTQTCGAWEMKERLGTGGFGNVIRWHNQETGEQIAIKQCRQELSPRNRERWCLEIQIMRRLTHPNVVAARDVPEGMQNLAPNDLPLLAMEYCQGGDLRKYLNQFENCCGLREGAILTLLSDIASALRYLHENRIIHRDLKPENIVLQQGEQRLIHKIIDLGYAKELDQGSLCTSFVGTLQYLAPELLEQQKYTVTVDYWSFGTLAFECITGFRPFLPNWQPVQWHSKVRQKSEVDIVVSEDLNGTVKFSSSLPYPNNLNSVLAERLEKWLQLMLMWHPRQRGTDPTYGPNGCFKALDDILNLKLVHILNMVTGTIHTYPVTEDESLQSLKARIQQDTGIPEEDQELLQEAGLALIPDKPATQCISDGKLNEGHTLDMDLVFLFDNSKITYETQISPRPQPESVSCILQEPKRNLAFFQLRKVWGQVWHSIQTLKEDCNRLQQGQRAAMMNLLRNNSCLSKMKNSMASMSQQLKAKLDFFKTSIQIDLEKYSEQTEFGITSDKLLLAWREMEQAVELCGRENEVKLLVERMMALQTDIVDLQRSPMGRKQGGTLDDLEEQARELYRRLREKPRDQRTEGDSQEMVRLLLQAIQSFEKKVRVIYTQLSKTVVCKQKALELLPKVEEVVSLMNEDEKTVVRLQEKRQKELWNLLKIACSKVRGPVSGSPDSMNASRLSQPGQLMSQPSTASNSLPEPAKKSEELVAEAHNLCTLLENAIQDTVREQDQSFTALDWSWLQTEEEEHSCLEQAS |
| – | – | – | binds | binds | IKKβ, cell-free expressed (TnT System) (protein, UniProt O14920 1-756) MSWSPSLTTQTCGAWEMKERLGTGGFGNVIRWHNQETGEQIAIKQCRQELSPRNRERWCLEIQIMRRLTHPNVVAARDVPEGMQNLAPNDLPLLAMEYCQGGDLRKYLNQFENCCGLREGAILTLLSDIASALRYLHENRIIHRDLKPENIVLQQGEQRLIHKIIDLGYAKELDQGSLCTSFVGTLQYLAPELLEQQKYTVTVDYWSFGTLAFECITGFRPFLPNWQPVQWHSKVRQKSEVDIVVSEDLNGTVKFSSSLPYPNNLNSVLAERLEKWLQLMLMWHPRQRGTDPTYGPNGCFKALDDILNLKLVHILNMVTGTIHTYPVTEDESLQSLKARIQQDTGIPEEDQELLQEAGLALIPDKPATQCISDGKLNEGHTLDMDLVFLFDNSKITYETQISPRPQPESVSCILQEPKRNLAFFQLRKVWGQVWHSIQTLKEDCNRLQQGQRAAMMNLLRNNSCLSKMKNSMASMSQQLKAKLDFFKTSIQIDLEKYSEQTEFGITSDKLLLAWREMEQAVELCGRENEVKLLVERMMALQTDIVDLQRSPMGRKQGGTLDDLEEQARELYRRLREKPRDQRTEGDSQEMVRLLLQAIQSFEKKVRVIYTQLSKTVVCKQKALELLPKVEEVVSLMNEDEKTVVRLQEKRQKELWNLLKIACSKVRGPVSGSPDSMNASRLSQPGQLMSQPSTASNSLPEPAKKSEELVAEAHNLCTLLENAIQDTVREQDQSFTALDWSWLQTEEEEHSCLEQAS |
